Assay results from patent publication US10801879B2, “Magnesium zinc oxide nanostructure modified biosensor and monitoring of response of cell population to an agent using the same” (Rutgers, The State University of New Jersey, priority 2015, dated 2020).
Values after ≈ are worked out from the molar mass of the structure shown.

Tested on: P. aeruginosa
Experiment: Standard broth dilution assay (MIC), P. aeruginosa
Type: cell-based
Conditions: Pseudomonas aeruginosa
Procedure: The sensor was placed inside an incubator at 37° C. while automatically measuring the acoustic spectrum every 15 minutes for 3 hours.

SMILES: O=C(O)c1cn(C2CC2)c2cc(N3CCNCC3)c(F)cc2c1=O [ciprofloxacin]
- MIC: 0.08 µg/mL (≈ 0.241 µM)
